Assay results as given in PubChem BioAssay AID603 (National Center for Advancing Translational Sciences (NCATS), 2007).
Screen size: about 71,000 compounds; about 180 (0.25%) were called active. The call rests on the fitted dose curve; in most records, active means well fitted curve in the direction sought with a large enough effect; inconclusive means small, poorly fitted or top-dose-only effect; inactive means flat fitted curve, though single readings scatter. The entries are a selection whose mix differs from that of the whole data set. Where no call is shown, the source filed none.

What follows are molecules tested on DNA polymerase III holoenzyme (E. coli) (assay: qHTS Assay for Inhibitors of DNA Polymerase III Holoenzyme System). Details: reconstituted DNA polymerase III holoenzyme replication, biochemical; activity change, negative = inhibition: at 11.4 µM (top of the series).
Procedure: NIH Molecular Libraries Screening Centers Network [MLSCN]
NIH Chemical Genomics Center [NCGC]
Assay Provider: Charles McHenry, University of Colorado
E. coli DNA polymerase III holoenzyme complex was assayed for DNA production by fluorescent detection of the double-stranded DNA product with PicoGreen dye. The holoenzyme complex was reconstituted from the following purified protein components: DNA Polymerase III, beta subunit processivity factor, SSB single-stranded DNA binding protein, and Primase. Single-stranded, circular M13Gori was used as a substrate with dNTPs and NTPs also supplied to the substrate reagent. Compounds from the NCGC collection were incubated with the holoenzyme mixture for 15 min at room temperature to allow binding to occur, and then the reaction was started by the addition of substrate. […] Reaction progress was measured in a ViewLux CCD imager in fluorescence intensity mode by using 480 nm excitation and 540 nm emission filter set. […]
Three uL of holoenzyme mixture were dispensed to 1536-well Greiner black solid bottom plates. […] After room temperature incubation for 35 minutes, 1 uL of PicoGreen solution was added to each well and the plates were read 480 nm excitation and 540 nm emission using ViewLux (Perkin-Elmer) High-throughput CCD imager and fluorescence protocol settings. […]
On the % scale 0 is the no-effect control and ±100 the full control effect; potency means the concentration at half of the fitted maximal effect.

SMILES	activity change, negative = inhibition	Potency
C[N@@+]1(CC[N@@+]2(C)CCC[C@H]2c2cccnc2)CCC[C@@H]1c1cccnc1	-73.7%	
O=C(Nc1ccc(Cl)cc1C(=O)O)c1ccc2c(c1)C(=O)N(Cc1ccco1)C2=O		active: 31.6 µM
